Laboratory results as given in patent US20090042213A1.
These are yes or no findings as the source states them, for the method shown. Some binding calls cover weakened binding; strength is not graded here.

Chains of the proteins cited; added tags and fusions are not shown. Residues count along the entry.
UniProt P02769, residues 25-607: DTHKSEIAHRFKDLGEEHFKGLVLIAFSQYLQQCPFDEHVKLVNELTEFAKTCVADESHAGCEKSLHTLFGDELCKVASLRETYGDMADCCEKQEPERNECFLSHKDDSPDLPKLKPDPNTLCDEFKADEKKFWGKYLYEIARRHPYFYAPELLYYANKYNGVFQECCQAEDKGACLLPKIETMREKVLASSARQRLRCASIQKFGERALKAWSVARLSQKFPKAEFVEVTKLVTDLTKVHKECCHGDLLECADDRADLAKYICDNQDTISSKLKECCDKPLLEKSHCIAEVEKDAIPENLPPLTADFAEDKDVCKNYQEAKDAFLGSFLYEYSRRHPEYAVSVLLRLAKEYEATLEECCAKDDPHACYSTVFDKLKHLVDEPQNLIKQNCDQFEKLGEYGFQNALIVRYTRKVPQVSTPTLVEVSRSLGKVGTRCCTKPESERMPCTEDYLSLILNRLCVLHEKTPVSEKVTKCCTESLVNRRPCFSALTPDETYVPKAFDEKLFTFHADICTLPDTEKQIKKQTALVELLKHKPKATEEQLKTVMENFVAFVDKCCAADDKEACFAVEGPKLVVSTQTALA

Target: bovine serum albumin (bovine) (UniProt P02769)
Experiment: observed during generation of the albumin-peptide conjugate used for affinity purification; method not described

## VIFDANAPVAVR [human thyroglobulin tryptic peptide … (SEQ ID NO:2)]
  binding: binds
